Results are given in words; binding and its absence hold for the method and conditions named. Binding seen in cells or lysates may run through a third protein. Some results given as binding are weak or reduced against the parent protein; the word gives no strength. Sequences can lack the tags named with a protein.
Biological target: T1, mWasabi-tagged ANT2 (human) (UniProt P05141)
T1 sequence: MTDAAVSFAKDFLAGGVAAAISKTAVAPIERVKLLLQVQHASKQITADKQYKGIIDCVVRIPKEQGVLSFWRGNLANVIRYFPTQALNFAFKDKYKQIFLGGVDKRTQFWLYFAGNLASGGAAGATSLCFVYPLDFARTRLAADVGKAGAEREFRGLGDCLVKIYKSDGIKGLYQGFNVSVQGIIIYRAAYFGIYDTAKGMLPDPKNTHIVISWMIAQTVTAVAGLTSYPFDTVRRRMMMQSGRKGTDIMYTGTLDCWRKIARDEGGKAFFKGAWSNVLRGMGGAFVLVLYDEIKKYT
Experiment: pull-down; mWasabi-ANT2 pulled down from 1 mg lysate of transfected A549 cells with mWasabi antibody and Dynabeads; pulled-down protein incubated with 10 µg TP4 overnight at 4 °C, washed, immunoblot with TP4 antibody; only the binder purified

B1: Tilapia piscidin 4 (TP4) (peptide)
peptide: FIHHIIGGLFSAGKAIHRLIRRRRR
Q: For B1, which binding is on record?
A: binds

From paper PMC7459631
